Measurements as given in doi:10.1101/2021.10.01.462460.
These are yes or no findings as the source states them, for the method shown. In cells and extracts the contact can be indirect. Some binding calls cover weakened binding; strength is not graded here. Sequences can lack the tags named with a protein.

Sequences of proteins named here, by UniProt entry; tags and fusion partners are left off. A change or cut given only in a name is not applied to a line headed by its entry.
UniProt Q96BN8: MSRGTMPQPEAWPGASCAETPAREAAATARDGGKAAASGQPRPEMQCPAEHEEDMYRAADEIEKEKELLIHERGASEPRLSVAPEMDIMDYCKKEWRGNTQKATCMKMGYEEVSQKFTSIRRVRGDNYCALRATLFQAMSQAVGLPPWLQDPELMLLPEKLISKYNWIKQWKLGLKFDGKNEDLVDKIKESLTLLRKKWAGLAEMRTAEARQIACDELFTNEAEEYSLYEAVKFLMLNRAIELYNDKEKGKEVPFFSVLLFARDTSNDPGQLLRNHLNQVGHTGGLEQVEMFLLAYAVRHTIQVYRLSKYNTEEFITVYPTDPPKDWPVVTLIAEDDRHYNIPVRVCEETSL
UniProt Q96EP0: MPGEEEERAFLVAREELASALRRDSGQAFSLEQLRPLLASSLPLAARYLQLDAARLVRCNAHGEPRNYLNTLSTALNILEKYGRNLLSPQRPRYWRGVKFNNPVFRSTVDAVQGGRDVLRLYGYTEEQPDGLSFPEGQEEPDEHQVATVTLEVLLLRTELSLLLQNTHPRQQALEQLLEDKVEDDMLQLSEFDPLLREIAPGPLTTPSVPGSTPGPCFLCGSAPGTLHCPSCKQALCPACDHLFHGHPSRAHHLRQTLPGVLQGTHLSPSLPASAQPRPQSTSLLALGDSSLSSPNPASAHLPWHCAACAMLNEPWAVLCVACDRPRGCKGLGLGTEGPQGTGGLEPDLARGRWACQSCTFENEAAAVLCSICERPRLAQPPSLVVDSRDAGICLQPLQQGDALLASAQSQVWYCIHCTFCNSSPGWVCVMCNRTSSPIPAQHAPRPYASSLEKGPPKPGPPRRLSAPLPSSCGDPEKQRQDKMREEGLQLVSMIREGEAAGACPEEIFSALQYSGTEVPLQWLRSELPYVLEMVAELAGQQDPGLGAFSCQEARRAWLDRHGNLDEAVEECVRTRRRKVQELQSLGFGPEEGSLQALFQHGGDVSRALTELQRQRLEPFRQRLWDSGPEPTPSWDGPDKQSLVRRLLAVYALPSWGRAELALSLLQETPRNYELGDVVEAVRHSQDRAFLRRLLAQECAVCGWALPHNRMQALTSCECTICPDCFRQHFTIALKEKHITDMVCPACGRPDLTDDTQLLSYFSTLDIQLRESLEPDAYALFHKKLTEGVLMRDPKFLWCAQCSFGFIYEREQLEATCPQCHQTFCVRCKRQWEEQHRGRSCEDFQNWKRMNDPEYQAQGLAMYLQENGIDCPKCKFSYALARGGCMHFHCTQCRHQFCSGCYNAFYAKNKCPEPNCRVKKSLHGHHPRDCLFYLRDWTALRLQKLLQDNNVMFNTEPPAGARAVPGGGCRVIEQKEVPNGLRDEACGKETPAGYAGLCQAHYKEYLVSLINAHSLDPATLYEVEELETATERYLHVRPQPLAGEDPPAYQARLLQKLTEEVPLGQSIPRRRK
UniProt Q9Y572: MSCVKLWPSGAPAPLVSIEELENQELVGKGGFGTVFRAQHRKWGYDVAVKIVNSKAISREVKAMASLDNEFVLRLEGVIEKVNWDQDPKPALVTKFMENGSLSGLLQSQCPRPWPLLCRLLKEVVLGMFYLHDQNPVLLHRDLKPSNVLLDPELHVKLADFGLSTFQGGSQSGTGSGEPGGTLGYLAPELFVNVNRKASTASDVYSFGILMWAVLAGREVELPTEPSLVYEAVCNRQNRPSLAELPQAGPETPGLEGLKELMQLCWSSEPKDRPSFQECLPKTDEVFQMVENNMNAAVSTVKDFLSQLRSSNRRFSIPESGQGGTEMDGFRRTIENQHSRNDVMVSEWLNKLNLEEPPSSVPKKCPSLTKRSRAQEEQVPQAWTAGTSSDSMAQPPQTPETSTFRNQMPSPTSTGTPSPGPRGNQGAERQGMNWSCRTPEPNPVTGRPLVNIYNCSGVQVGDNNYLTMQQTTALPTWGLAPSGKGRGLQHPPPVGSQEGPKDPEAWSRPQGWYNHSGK

Assays:
[1] = molecular target: T1, FLAG-tagged wild-type (WT) ZBP1 (Z-DNA-binding protein 1) (human) (UniProt Q9H171); assay: co-IP
T1 sequence: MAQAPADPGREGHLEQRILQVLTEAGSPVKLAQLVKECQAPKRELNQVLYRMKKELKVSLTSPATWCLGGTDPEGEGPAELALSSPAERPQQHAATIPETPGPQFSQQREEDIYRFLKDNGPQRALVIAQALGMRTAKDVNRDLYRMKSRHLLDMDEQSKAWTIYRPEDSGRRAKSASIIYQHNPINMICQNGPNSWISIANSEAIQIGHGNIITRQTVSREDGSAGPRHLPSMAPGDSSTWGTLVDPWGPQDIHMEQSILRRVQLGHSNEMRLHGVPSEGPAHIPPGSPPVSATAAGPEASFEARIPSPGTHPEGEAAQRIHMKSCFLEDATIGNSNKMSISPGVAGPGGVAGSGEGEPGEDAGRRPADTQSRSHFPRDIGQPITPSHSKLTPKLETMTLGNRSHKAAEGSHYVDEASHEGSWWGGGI

[2] = molecular target: T2, FLAG-tagged wild-type (WT) ZBP1 (Z-DNA-binding protein 1) (human), Q9H171; assay: co-IP; details: remark: other sources report otherwise
T2 chain: T1 sequence

Molecule: OTULIN (from UniProt Q96BN8 1-352) (enzyme)
- binding [1]: binds

Molecule: LUBAC (HOIP, HOIL-1, SHARPIN) (from UniProt Q96EP0 1-1072; Q9BYM8 1-510; Q9H0F6 1-387) (complex)
- binding [1]: binds

Molecule: phosphorylated RIPK3 (from UniProt Q9Y572 1-518)
- binding [1]: binds

Molecule: RIPK3 (from UniProt Q9Y572 1-518)
- binding [1]: binds

B1: RIPK1, Q13546 1-671 (protein)
chain: MQPDMSLNVIKMKSSDFLESAELDSGGFGKVSLCFHRTQGLMIMKTVYKGPNCIEHNEALLEEAKMMNRLRHSRVVKLLGVIIEEGKYSLVMEYMEKGNLMHVLKAEMSTPLSVKGRIILEIIEGMCYLHGKGVIHKDLKPENILVDNDFHIKIADLGLASFKMWSKLNNEEHNELREVDGTAKKNGGTLYYMAPEHLNDVNAKPTEKSDVYSFAVVLWAIFANKEPYENAICEQQLIMCIKSGNRPDVDDITEYCPREIISLMKLCWEANPEARPTFPGIEEKFRPFYLSQLEESVEEDVKSLKKEYSNENAVVKRMQSLQLDCVAVPSSRSNSATEQPGSLHSSQGLGMGPVEESWFAPSLEHPQEENEPSLQSKLQDEANYHLYGSRMDRQTKQQPRQNVAYNREEERRRRVSHDPFAQQRPYENFQNTEGKGTAYSSAASHGNAVHQPSGLTSQPQVLYQNNGLYSSHGFGTRPLDPGTAGPRVWYRPIPSHMPSLHNIPVPETNYLGNTPTMPFSSLPPTDESIKYTIYNSTGIQIGAYNYMEIGGTSSSLLDSTNTNFKEEPAAKYQAIFDNTTSLTDKHLDPIRENLGKHWKNCARKLGFTQSQIDEIDHDYERDGLKEKVYQMLQKWVMREGIKGATVGKLAQALHQCSRIDLLSSLIYVSQN
- binding [2]: binds

B2: IKKβ (enzyme, UniProt O14920 1-756)
chain: MSWSPSLTTQTCGAWEMKERLGTGGFGNVIRWHNQETGEQIAIKQCRQELSPRNRERWCLEIQIMRRLTHPNVVAARDVPEGMQNLAPNDLPLLAMEYCQGGDLRKYLNQFENCCGLREGAILTLLSDIASALRYLHENRIIHRDLKPENIVLQQGEQRLIHKIIDLGYAKELDQGSLCTSFVGTLQYLAPELLEQQKYTVTVDYWSFGTLAFECITGFRPFLPNWQPVQWHSKVRQKSEVDIVVSEDLNGTVKFSSSLPYPNNLNSVLAERLEKWLQLMLMWHPRQRGTDPTYGPNGCFKALDDILNLKLVHILNMVTGTIHTYPVTEDESLQSLKARIQQDTGIPEEDQELLQEAGLALIPDKPATQCISDGKLNEGHTLDMDLVFLFDNSKITYETQISPRPQPESVSCILQEPKRNLAFFQLRKVWGQVWHSIQTLKEDCNRLQQGQRAAMMNLLRNNSCLSKMKNSMASMSQQLKAKLDFFKTSIQIDLEKYSEQTEFGITSDKLLLAWREMEQAVELCGRENEVKLLVERMMALQTDIVDLQRSPMGRKQGGTLDDLEEQARELYRRLREKPRDQRTEGDSQEMVRLLLQAIQSFEKKVRVIYTQLSKTVVCKQKALELLPKVEEVVSLMNEDEKTVVRLQEKRQKELWNLLKIACSKVRGPVSGSPDSMNASRLSQPGQLMSQPSTASNSLPEPAKKSEELVAEAHNLCTLLENAIQDTVREQDQSFTALDWSWLQTEEEEHSCLEQAS
- binding [1]: binds

B3: TAK1 (enzyme, UniProt O43318 1-606)
chain: MSTASAASSSSSSSAGEMIEAPSQVLNFEEIDYKEIEVEEVVGRGAFGVVCKAKWRAKDVAIKQIESESERKAFIVELRQLSRVNHPNIVKLYGACLNPVCLVMEYAEGGSLYNVLHGAEPLPYYTAAHAMSWCLQCSQGVAYLHSMQPKALIHRDLKPPNLLLVAGGTVLKICDFGTACDIQTHMTNNKGSAAWMAPEVFEGSNYSEKCDVFSWGIILWEVITRRKPFDEIGGPAFRIMWAVHNGTRPPLIKNLPKPIESLMTRCWSKDPSQRPSMEEIVKIMTHLMRYFPGADEPLQYPCQYSDEGQSNSATSTGSFMDIASTNTSNKSDTNMEQVPATNDTIKRLESKLLKNQAKQQSESGRLSLGASRGSSVESLPPTSEGKRMSADMSEIEARIAATTAYSKPKRGHRKTASFGNILDVPEIVISGNGQPRRRSIQDLTVTGTEPGQVSSRSSSPSVRMITTSGPTSEKPTRSHPWTPDDSTDTNGSDNSIPMAYLTLDHQLQPLAPCPNSKESMAVFEQHCKMAQEYMKVQTEIALLLQRKQELVAELDQDEKDQQNTSRLVQEHKKLLDENKSLSTYYQQCKKQLEVIRSQQQKRQGTS
- binding [1]: binds
